PubChem BioAssay AID1159584, Peter MacCallum Cancer Centre – 2016
Test: 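Knock-downs that harm CDH1-null cells more than parental MCF10A cells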 (primary screen). System: human MCF10A breast epithelial cells, parental and CDH1-null. Knock-down reagent: siRNA against human genes. Detection: 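ATP luminescence (CellTiter-Glo) viability per line relative to mean mock wells over all plates, and the ratio of CDH1-null to parental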. Reading the numbers: CDH1-null / parental viability ratio: higher = CDH1-null cells survive relatively better than parental; CDH1-null viability vs mock: higher = more viable CDH1-null cells; parental viability vs mock: higher = more viable parental cells.
The deposit covers about 18,000 reagents; below is an unselected part. No sequences are given here. The record does not give: the amount of reagent, the time to read-out.

target	CDH1-null / parental viability ratio	CDH1-null viability vs mock (fraction of mock)	parental viability vs mock (fraction of mock)
GPC5	0.99	0.94	0.95
VPS37D	1.25	0.74	0.59
TRIO	0.96	0.78	0.81
MAPK12	0.94	1.02	1.08
PRAMEF9	0.96	0.81	0.84
GORASP1	1.15	0.76	0.66
RIF1	1.52	0.88	0.58
IMPA1	1.08	0.9	0.83
CHAD	0.65	0.31	0.48
TBC1D10C	1.04	0.88	0.85
BST1	0.79	0.52	0.66
NAT1	0.91	0.95	1.04
CALU	0.98	0.86	0.88
DCAF12	1.12	0.9	0.8

Targets above whose target name begins with C or c:
target	CDH1-null / parental viability ratio	CDH1-null viability vs mock (fraction of mock)	parental viability vs mock (fraction of mock)
CHAD	0.65	0.31	0.48
CALU	0.98	0.86	0.88

Continued:
target	CDH1-null / parental viability ratio	CDH1-null viability vs mock (fraction of mock)	parental viability vs mock (fraction of mock)
SYCE1	0.9	0.73	0.81
AK5	0.89	0.8	0.9
DUSP1	1.08	0.78	0.72
PRR34	0.76	0.62	0.82
MORC1	0.79	0.76	0.96
GADD45G	0.88	0.92	1.04
SHROOM1	1.04	0.56	0.54
SYCP1	0.67	0.38	0.57
KDM3B	1.28	0.82	0.64
POLG2	0.93	0.91	0.98
GPI	1.27	0.94	0.74
CAB39L	1.03	0.97	0.94
HSDL1	1.08	0.99	0.92
PHB1	0.94	0.58	0.62
